Measured values taken from PubChem BioAssay AID504444 (National Center for Advancing Translational Sciences (NCATS), 2011).
Out of some 360,000 compounds screened, about 7,500 (2.1%) were called active. The shares of active, inactive and inconclusive entries below differ from those in the screen. Calls follow the shape of the dose curve; as a rule, active = well fitted inhibition curve with a large enough effect; inconclusive = small, poorly fitted or top-dose-only effect, or effect the other way; inactive = flat fitted curve, though single readings scatter. Potencies of inconclusive entries are doubtful fits and often do not repeat.

Experiment: Nrf2 qHTS screen for inhibitors; also: nearly all actives have a fitted effect of over 60% in size
Conditions: A549 ARE-Fluc reporter, luciferase luminescence, 18-24 h; series mostly up to 46 µM
How it was run: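 Quantitative HTS in A549 cells stably bearing an antioxidant response element-firefly luciferase construct. Inhibition of Nrf2-driven transcription was scored by luminescence after 18-24 h of compound exposure at 37 °C.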
Potency is read from the fitted curve at half-maximal effect.

Compound | Potency
O=C(O)CSc1cccc2cccnc12 | inconclusive: 29.1 µM [activator, single point]
c1ccc(-c2noc(-c3ccc4ccccc4c3)n2)nc1 | inconclusive: 2.59 µM [falling, full curve, poor fit]
Cc1ccc(C)c(CSc2cn(CCNC(=O)c3ccccc3F)c3ccccc23)c1 | inconclusive: 29.1 µM [falling, single point]
CCNC(=O)CN(c1ccc(Oc2ccccc2)cc1)S(=O)(=O)c1ccccc1 | inconclusive: 29.1 µM [falling, single point]
Cc1cc(NC(=O)c2ccc(C)s2)n(-c2nc3ccccc3[nH]2)n1 | inconclusive: 5.17 µM [falling, partial curve]
Cc1c(CCC(=O)N2CCC(C(=O)NCCCCCC(=O)O)CC2)c(=O)oc2cc3oc4c(c3cc12)CCCC4 | inconclusive: 29.1 µM [falling, partial curve, poor fit]
Cc1ccccc1NC(=O)CSc1nnc(-c2ccco2)c(-c2ccco2)n1 | inconclusive: 23.1 µM [activator, single point]
COc1ccc(CCNCC(O)COc2cccc(Br)c2)cc1 (stereo not given) | inconclusive: 25.9 µM [activator, single point]
O=C(Nc1ccccc1)C1CCCN1C(=O)NCc1ccccc1 (stereo not given) | inactive
O=C(Nc1ccccc1)Nc1ccc2ncoc2c1 | inconclusive: 20.6 µM [activator, partial curve, poor fit]
O=C(c1ccccc1)N1CCn2c(nc3ccccc32)C1 | inconclusive: 25.9 µM [activator, single point]
c1csc(CNc2ccc3c(c2)OCCO3)c1 | inconclusive: 9.2 µM [activator, partial curve, poor fit]
COc1ccc(/C(=C\Nc2ccc(C)c(C)c2)C(C)=O)cc1OC | inconclusive: 23.1 µM [falling, partial curve, poor fit]
CCOC(=O)C1=CN(Cc2cccc(-c3ccc(Cl)nc3)c2)S(=O)(=O)N(C)C1C (stereo not given) | inconclusive: 29.1 µM [falling, single point]
Cc1ccc(-c2nc(CS(=O)CC(=O)NCCCN3CCN(Cc4ccccc4)CC3)c(C)o2)cc1 (stereo not given) | inconclusive: 20.6 µM [falling, single point]
CCC(=O)c1ccc(N2CCN(C(=O)c3ccc(Br)cc3)CC2)c(F)c1 | inconclusive: 29.1 µM [falling, single point]
O=C(N/N=C/C=C\c1ccccc1[N+](=O)[O-])c1cc(-c2ccc3ccccc3c2)n[nH]1 | inconclusive: 6.51 µM [activator, partial curve, poor fit]
COc1ccc(C(=O)N/N=C/c2ccc(N(C)c3ccccc3)cc2)cc1 | inconclusive: 25.9 µM [falling, single point]
CCCCc1ccc(NC(=S)NCc2cccs2)cc1 | inconclusive: 29.1 µM [falling, single point]
O=C1c2oc3ccccc3c(=O)c2C(c2cccs2)N1CCCN1CCOCC1 (stereo not given) | inactive
CCOc1ccccc1NC(=O)COC(=O)C(CC)c1ccccc1 (stereo not given) | inconclusive: 5.8 µM [activator, full curve, poor fit]
CCN(CC)CCNC(=O)c1cc2c(=O)oc3ccc(C)cc3c2s1 | inconclusive: 2.31 µM [activator, partial curve, poor fit]

Compound | Potency
CCN(CC)c1ccc(S(=O)(=O)N2CCOCC2)cc1NC(=O)c1cc(=O)c2ccccc2o1 | inconclusive: 5.8 µM [falling, partial curve, poor fit]
CCCCNC(=O)Nc1cnn(CC)c1C(N)=O | inconclusive: 29.1 µM [activator, single point]
Cc1ccc(SCCSc2ncccn2)cc1 | inconclusive: 4.11 µM [activator, partial curve]
Cc1sc(NC(=S)NC(=O)C(C)(C)C)c(C(N)=O)c1C | inconclusive: 2.31 µM [activator, partial curve, poor fit]
Cn1cnc2c(SCc3ccccc3)ncnc21 | inconclusive: 9.2 µM [activator, partial curve]
O=C(/C=C/c1ccc(Cl)cc1)Nc1nc(-c2cccs2)ns1 | inconclusive: 14.6 µM [falling, partial curve, poor fit]
CCN(C(=O)COC(=O)CNS(=O)(=O)c1ccc(SC)c([N+](=O)[O-])c1)C1CCCCC1 | inactive
Cc1nc2ccccc2nc1N/N=C/c1ccc(O)cc1 | inactive
Cc1sc2ncn(CCn3cnc4sc(C)c(C)c4c3=O)c(=O)c2c1C | active: 16.4 µM
O=C(CSc1nnc(CNC(=O)c2ccco2)o1)Nc1ccc(Br)cc1 | inconclusive: 23.1 µM [falling, single point]
COc1ccc(C(=O)C[n+]2ccc3c(c2)nc(-c2ccc(OC)cc2OC)n3C)cc1 | inconclusive: 7.31 µM [falling, partial curve]
C=CCOC(=O)C1=C(C)NC(C)=C(C(=O)OCC=C)C1c1ccc(O)cc1 | inactive
COc1cc(OC)c(NC(=O)c2c3c(nc4ccccc24)C(=O)N(C2CCCCC2)C3)cc1Cl | active: 13 µM
O=C(N/N=C/c1ccc(N2CCOCC2)cc1)c1cccs1 | inconclusive: 1.46 µM [activator, full curve]
Clc1ccc(CNC2CCCC2)c(Cl)c1 | inactive
CC(=O)c1cccc(NC(=O)c2nc(-c3ccccc3)n(-c3cccc(C)c3)n2)c1 | active: 18.4 µM
Cc1ccc(S(=O)(=O)c2nc(S(=O)(=O)c3ccc(C)cc3)c(NCc3ccco3)s2)cc1 | inconclusive: 16.4 µM [falling, partial curve, poor fit]
CCOC(=O)Cc1ccc(NC(=O)c2ccc(C(C)(C)C)cc2)cc1 | active: 2.59 µM
O=C(Nc1nc2n(n1)C(c1ccc(F)cc1)C=C(c1ccccc1)N2)c1cccc([N+](=O)[O-])c1 (stereo not given) | inconclusive: 11.6 µM [activator, partial curve, poor fit]
Cc1cccc(N(CC(=O)Nc2ccc(-c3nc4ccc(C)cc4s3)cc2)S(C)(=O)=O)c1 | inconclusive: 0.731 µM [activator, full curve]
COc1cc(S(=O)(=O)NC2CCCCC2)c(C)cc1C | inconclusive: 20.6 µM [falling, partial curve, poor fit]
CCN(CC(=O)Nc1ccc(NC(C)=O)cc1)Cc1c(O)ccc2cc(Br)ccc12 | inactive

Compound | Potency
Cc1ccc2occ(CC(=O)N3CCN(c4cccc(Cl)c4)CC3)c2c1 | inconclusive: 29.1 µM [falling, single point]
COc1ccc(N/C=C2\CCc3ccccc3C2=O)cc1 | inconclusive: 18.4 µM [falling, single point]
O=C(NC1CCN(Cc2ccccc2)CC1)c1ccc(S(=O)(=O)NCc2ccco2)cc1 | active: 6.51 µM
O=C(O)CCCC(=O)N1CCN(c2nc(-c3ccccc3Cl)c3cc(Br)ccc3n2)CC1 | inconclusive: 23.1 µM [falling, single point]
CCOC(=O)c1ccccc1NC(=O)c1nn(C)c2c1COc1ccccc1-2 | inconclusive: 29.1 µM [falling, single point]
CC(C)CCNC(=O)c1cn(C)c2ccc(S(=O)(=O)N3CCOCC3)cc2c1=O | inactive
Cc1ccc(OCc2nnc(-c3ccccc3)o2)cc1 | inconclusive: 25.9 µM [activator, partial curve, poor fit]
O=C(NCc1ccc(OC(F)(F)F)cc1)C12CN(Cc3ccccc3)CC1C(c1cccc([N+](=O)[O-])c1)=NO2 (stereo not given) | inconclusive: 23.1 µM [falling, partial curve, poor fit]
Cc1ccc(C(=O)N2c3ccccc3CC2C)o1 (stereo not given) | inconclusive: 8.2 µM [activator, partial curve]
CCOc1ccc(Nc2ccc3nonc3c2[N+](=O)[O-])cc1 | inconclusive: 3.66 µM [falling, partial curve, poor fit]
NS(=O)(=O)c1ccc(CCNc2nc(C(F)(F)F)nc3ccccc23)cc1 | active: 23.1 µM
Cc1ccc2[nH]c3c(=O)n(CCc4cnc[nH]4)cnc3c2c1 | inactive
C[C@H](CO)N1C[C@H](C)[C@@H](CN(C)S(=O)(=O)c2ccc(F)cc2)Oc2c(NC(=O)Nc3ccc(C(F)(F)F)cc3)cccc2C1=O | active: 18.4 µM
N#Cc1ccc(CSc2nnc(Nc3ccccc3)s2)cc1 | inconclusive: 6.51 µM [falling, full curve, poor fit]
CC(C)CC(=O)Nc1nc(-c2ccc(S(=O)(=O)N3CCOCC3)cc2)cs1 | inconclusive: 25.9 µM [falling, partial curve, poor fit]
COC(=O)c1sc2nc(C)nc(SCC(=O)C(C)(C)C)c2c1C | inconclusive: 11.6 µM [falling, single point]
Cc1ccc(/C=C2\SC(=S)N(CCCC(=O)Nc3cc(C)on3)C2=O)cc1 | inconclusive: 14.6 µM [falling, partial curve]
Cn1c(O)c(N=NC(=S)Nc2ccccc2F)c2cc(S(=O)(=O)N3CCOCC3)ccc21 | inconclusive: 18.4 µM [falling, single point]
Cc1nnc(NC(=O)c2ccc(S(=O)(=O)N(C)Cc3ccccc3)cc2)o1 | active: 18.4 µM
CCCCNC(C(=O)Nc1cccc(S(=O)(=O)N2CCOCC2)c1)c1ccccc1 (stereo not given) | inconclusive: 20.6 µM [falling, single point]
C/C(=C\C(=O)c1ccc(Br)cc1)NNC(=O)c1ccccc1 | inconclusive: 29.1 µM [falling, single point]

A second format for part of the listing above:

| Compound | Potency |
| --- | --- |
| COc1ccc(N/C=C2\CCc3ccccc3C2=O)cc1 | inconclusive: 18.4 µM [falling, single point] |
| O=C(NC1CCN(Cc2ccccc2)CC1)c1ccc(S(=O)(=O)NCc2ccco2)cc1 | active: 6.51 µM |
| O=C(O)CCCC(=O)N1CCN(c2nc(-c3ccccc3Cl)c3cc(Br)ccc3n2)CC1 | inconclusive: 23.1 µM [falling, single point] |
| CC(C)CCNC(=O)c1cn(C)c2ccc(S(=O)(=O)N3CCOCC3)cc2c1=O | inactive |
| Cc1ccc(OCc2nnc(-c3ccccc3)o2)cc1 | inconclusive: 25.9 µM [activator, partial curve, poor fit] |
| Cc1ccc(C(=O)N2c3ccccc3CC2C)o1 (stereo not given) | inconclusive: 8.2 µM [activator, partial curve] |
| CCOc1ccc(Nc2ccc3nonc3c2[N+](=O)[O-])cc1 | inconclusive: 3.66 µM [falling, partial curve, poor fit] |
| Cc1ccc2[nH]c3c(=O)n(CCc4cnc[nH]4)cnc3c2c1 | inactive |
| C[C@H](CO)N1C[C@H](C)[C@@H](CN(C)S(=O)(=O)c2ccc(F)cc2)Oc2c(NC(=O)Nc3ccc(C(F)(F)F)cc3)cccc2C1=O | active: 18.4 µM |
| N#Cc1ccc(CSc2nnc(Nc3ccccc3)s2)cc1 | inconclusive: 6.51 µM [falling, full curve, poor fit] |
| COC(=O)c1sc2nc(C)nc(SCC(=O)C(C)(C)C)c2c1C | inconclusive: 11.6 µM [falling, single point] |
| Cn1c(O)c(N=NC(=S)Nc2ccccc2F)c2cc(S(=O)(=O)N3CCOCC3)ccc21 | inconclusive: 18.4 µM [falling, single point] |
| CCCCNC(C(=O)Nc1cccc(S(=O)(=O)N2CCOCC2)c1)c1ccccc1 (stereo not given) | inconclusive: 20.6 µM [falling, single point] |
| C/C(=C\C(=O)c1ccc(Br)cc1)NNC(=O)c1ccccc1 | inconclusive: 29.1 µM [falling, single point] |
